Measured values: patent publication CN112661849A
Results are given in words; binding and its absence hold for the method and conditions named. Some results given as binding are weak or reduced against the parent protein; the word gives no strength.

Molecular target: T1, 艰难梭菌谷氨酸脱氢酶(GDH) (艰难梭菌 (Clostridium difficile)) (UniProt P27346)
T1 sequence (looked up): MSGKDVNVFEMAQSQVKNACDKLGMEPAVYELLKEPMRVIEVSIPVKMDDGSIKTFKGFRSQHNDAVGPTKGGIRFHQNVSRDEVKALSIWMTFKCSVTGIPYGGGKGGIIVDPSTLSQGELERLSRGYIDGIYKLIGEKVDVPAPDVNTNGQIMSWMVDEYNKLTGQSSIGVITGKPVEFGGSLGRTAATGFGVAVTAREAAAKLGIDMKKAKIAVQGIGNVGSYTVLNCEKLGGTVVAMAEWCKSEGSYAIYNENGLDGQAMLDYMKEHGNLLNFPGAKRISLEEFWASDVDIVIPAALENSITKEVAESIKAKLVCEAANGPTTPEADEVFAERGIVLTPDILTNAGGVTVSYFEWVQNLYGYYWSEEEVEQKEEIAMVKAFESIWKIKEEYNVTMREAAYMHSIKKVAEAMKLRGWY
Experiment: sandwich ELISA on stool specimens of CDI patients, 3B12 coated at 1 μg/mL as capture, 5E3-HRP as detector, P/N of OD450

binding: binds
B1: 3B12单抗 (antibody, V domains shown)
VH: EVQLQQSGPELVKPGASVEMSCKASGYTFTSYVMHWVKQKPGQGLEWIGYINPYNYDTKYNEKFKGKASLTSDKSSSTAYMELSSLTSEDSAVYYCTRGGDFDYWGQGTTLTVSS
VL: QIVLTQSPAIMSASLGERVTMTCTASSSVYPSYLYWYQQKPGSSPKLWIYTTSNLASGVPARFSGSGSGTSYSLTISSMEAEDAATYYCHQYHRSRTFGGGTKLEIKR
